# Laboratory results from publication PMC12040169 (PLOS Biology, 2025).
# This is one part of the list.
# Tested on: T1, CTL2-GFP (C. trachomatis L2/434/Bu, GFP-expressing)
# T1 construct: L2/434/Bu, GFP-expressing
# Design: species or system HeLa; Intracellular C. trachomatis growth in HeLa cells, bulk GFP fluorescence relative to DMSO
# Conditions: bulk GFP, single well; 28.5 h, 10 µM; inhibitor
row,SMILES,% of control remaining
1,Brc1ccc(/C=N\c2ccc3c(c2)ncn3CCn2cnc3cc(/N=C/c4ccc(Br)cc4)ccc32)cc1 [CBK262285],139.67%
2,CC(=O)c1ccc(-c2nc(NC(=O)c3ccccn3)cnc2-c2cccc(OC(F)(F)F)c2)s1 [CBK036929],141.518%
3,OCCCn1c(-c2ccc(Cl)cc2)cn2c3ccccc3nc12 [CBK262900],69.6176%
4,O=C(O)C1CCCN(C(=O)NCc2c(Cl)cccc2Cl)C1 (centres unmarked) [CBK161362],144.23%
5,COc1ccc([N+](=O)[O-])cc1NC(=O)CSc1nnnn1C [CBK268950],172.587%
6,CC(C)c1ccc(C(=O)NC2CCN(CC(F)(F)F)C2=O)nc1 (centres unmarked) [CBK304089],110.606%
7,O=C(Nc1ccccc1Cl)N1CCN(c2ccc(F)cc2)CC1 [CBK117849],88.4942%
8,O=C(Nc1ccc(Sc2ccc([N+](=O)[O-])cc2)cc1)c1ccc2c(c1)C(=O)N(c1ccccc1-c1ccccc1)C2=O [CBK261340],120.017%
9,c1ccc(N2CCN(c3nc4cc5c(cc4s3)OCO5)CC2)cc1 [CBK287495],121.017%
10,NC(=O)C[N+]1(CC#CC(O)(c2ccccc2)c2ccccc2)CCCC1 [CBK262703I],126.864%
11,CC(=O)Nc1cccc(C(=O)N2CCN(CC3CCCO3)CC2)c1 (centres unmarked) [CBK305158],200.112%
12,O=C(CCSc1ccc([N+](=O)[O-])cc1Cl)Nc1ccc(Br)c2cccnc12 [CBK266407],99.211%
13,COc1ccc2[nH]c3c(c2c1)CN(C(=O)CCC1CCCO1)CC3 (centres unmarked) [CBK281530],111.493%
14,Cc1cc(C)c2c(C)nn(-c3ccc(C(=O)O)cc3)c2n1 [CBK267480],128.724%
15,S=C(NCc1ccc(-n2cccn2)cc1)NCC1CCCO1 (centres unmarked) [CBK267083],164.484%
16,Cc1cc(O)nc(SCCCSc2ccccc2)n1 [CBK267415],106.822%
17,COc1ccc2[nH]cc(C3CCN(Cc4cc(C)no4)CC3)c2c1 [CBK303996],94.0002%
18,O=S(=O)(Nc1ccc(C(O)(C(F)(F)F)C(F)(F)F)cc1)c1cccc2cccnc12 [CBK062092],97.8112%
19,CC(C)N1CCC(C(=O)NC(=O)NCCc2ccc3c(c2)OCO3)CC1 [CBK034804],119.082%
20,Cn1cccc1CNCCc1ccc(S(N)(=O)=O)cc1 [CBK267831C],117.842%
21,COc1ccc(C)cc1S(=O)(=O)N1CCc2c(CN3CCN(C)CC3)cccc21 [CBK113628T],106.123%
22,Cn1ccnc1Sc1nc2ccccc2nc1N1CCCC1 [CBK093791],108.58%
23,Cc1ccc(NC(=O)c2cscn2)c(C)n1 [CBK200297],173.606%
24,CCc1nn(CC(=O)NC2CCC2)c(=O)c2cc3ccsc3n12 [CBK284136],85.7492%
25,Cc1nc(NCc2ccc(C(F)(F)F)cc2)nc(N2CCOCC2)n1 [CBK023863],100.078%

row,SMILES,% of control remaining
1,Cc1ccc(Cl)cc1-n1cc(-c2ccc(F)cc2)nn1 [CBK113128],128.474%
2,Cc1cc(NC(=O)c2cc(Br)cnc2NCc2cccnc2)n(C)n1 [CBK076358],119.413%
3,O=C(NCC1CCNCC1)c1ccncc1 [CBK267637C],115.438%
4,CCc1cccc2c(CC(=O)N(C)CCN(C)C)c(C)[nH]c12 [CBK282673],85.7081%
5,O=C(Cn1c(-c2cncs2)nc2ccccc21)NCc1ccc2c(c1)OCO2 [CBK264699],116.564%
6,CO/N=C(N)/C(N)=N/OC [CBK019780],122.929%
7,O=C(c1ccc(C#CC2(O)CCCCC2)cc1)N1CCC(C(O)(c2ccccc2)c2ccccc2)CC1 [CBK033758],58.5998%
8,Cc1csc(C(Cc2ccsc2)NC(=O)CN2CCCC2=O)n1 (centres unmarked) [CBK285046],146.025%
9,COc1ccc(C2NC(C(=O)O)CS2)cc1CN1CCOCC1 (centres unmarked) [CBK287132],119.956%
10,Cc1ccc(C2=NN(c3ccccc3)C(c3cn(CCC(=O)O)nc3-c3ccccc3)C2)cc1 (centres unmarked) [CBK296110],97.1958%
11,COc1ccc([C@@]23CC[C@@H](NC(=S)NC(C)=O)C[C@@H]2N(Cc2ccccc2)CC3)cc1OC [CBK025503T],66.3877%
12,Cc1ccc(S(=O)(=O)n2ccc3ccc(N4CCN(C)CC4)nc32)cc1 [CBK063327],98.9987%
13,CC(C)[C@@H](CO)Nc1cncc(-c2ccc(F)cc2F)n1 [CBK065875],180.162%
14,CNC(=O)c1cc(-c2cccc(C)c2)oc1C [CBK047432],136.411%
15,Nc1nnc(Sc2nc3ccccc3nc2C(F)(F)F)s1 [CBK093795],105.156%
16,O=C(c1ccc(F)cc1)C1CCN(Cc2cc(=O)[nH]c(=O)[nH]2)CC1 [CBK149132],101.8%
17,Cc1noc(C)c1CN(C)C(C)C(=O)Nc1nccs1 (centres unmarked) [CBK304826],86.9464%
18,COCCn1nnnc1C(c1cc2c(C)ccc(C)c2[nH]c1=O)N1CCN(C(=O)c2ccco2)CC1 (centres unmarked) [CBK111563],92.1946%
19,COCc1ccc(Nc2ccccc2S(=O)(=O)c2ccccc2)cc1OCC1CCN(C(=O)OC(C)(C)C)CC1 [CBK175577],134.551%
20,c1cc(-c2nnc3n2CCCCS3)ccn1 [CBK288543],122.482%
21,CC(C)n1ccnc1CNc1cccc(OCC(=O)N2CCCC2)c1 [CBK305377],102.995%
22,Nc1nc2n(n1)C(c1ccccc1)C1=C(CCCC1)N2 (centres unmarked) [CBK287949],128.071%
23,COc1ccc(Nc2cc(Cl)ccc2C(=O)NC(C)(C)CN2CCOCC2)cn1 [CBK107436],96.552%
24,COc1ccc(NC(=S)NC(=O)CN2C(=O)c3ccccc3C2=O)c([N+](=O)[O-])c1 [CBK267594],88.6143%
25,O=C(CN1CCCC1)NC1CCCc2c1cnn2-c1ccc(F)cc1 (centres unmarked) [CBK283930],132.408%

# Compounds shown so far that contain an aryl methoxy group (eight):
row,SMILES,% of control remaining
5,COc1ccc([N+](=O)[O-])cc1NC(=O)CSc1nnnn1C [CBK268950],172.587%
13,COc1ccc2[nH]c3c(c2c1)CN(C(=O)CCC1CCCO1)CC3 (centres unmarked) [CBK281530],111.493%
17,COc1ccc2[nH]cc(C3CCN(Cc4cc(C)no4)CC3)c2c1 [CBK303996],94.0002%
21,COc1ccc(C)cc1S(=O)(=O)N1CCc2c(CN3CCN(C)CC3)cccc21 [CBK113628T],106.123%
9,COc1ccc(C2NC(C(=O)O)CS2)cc1CN1CCOCC1 (centres unmarked) [CBK287132],119.956%
11,COc1ccc([C@@]23CC[C@@H](NC(=S)NC(C)=O)C[C@@H]2N(Cc2ccccc2)CC3)cc1OC [CBK025503T],66.3877%
23,COc1ccc(Nc2cc(Cl)ccc2C(=O)NC(C)(C)CN2CCOCC2)cn1 [CBK107436],96.552%
24,COc1ccc(NC(=S)NC(=O)CN2C(=O)c3ccccc3C2=O)c([N+](=O)[O-])c1 [CBK267594],88.6143%

# Not a retest: an excerpt of the list.
row,SMILES,% of control remaining
13,CC(C)[C@@H](CO)Nc1cncc(-c2ccc(F)cc2F)n1 [CBK065875],180.162%
14,CNC(=O)c1cc(-c2cccc(C)c2)oc1C [CBK047432],136.411%
